Patent US20090214439A1, “Fluorinated Carbohydrates and Their Use in Tumor Visualization, Tissue Engineering, and Cancer Chemotherapy” (Trustees of Tufts College, priority 2006, published 2009)

Tested on: Jurkat, HL-60 and HeLa cells
Test: ESI-MS analysis of cytosolic fractions (conversion of N-acyl mannosamines to sialic acids)
Format: cell-based
Conditions: cells treated with 200 μM of the corresponding N-acyl mannosamine 4 for 36-48 hrs
Protocol: ESI-MS Analysis of Cytosolic Fractions. The ability of fluorinated N-acyl mannosamines 4a, 4b, 4d, 4e, and 4g (see FIG. 2 for structures) to cross the plasma membrane and undergo subsequent conversion to the corresponding sialic acids was probed using electrospray ionization mass spectral (ESI-MS) analysis of cytosolic fractions. Three cell lines, Jurkat (ATTC TIB-152), HL-60 (ATCC CCL-240) and HeLa (ATCC CCL-2) were investigated. Briefly, cells (usually 5×10^5 cells/mL in 20 mL culture medium) were treated with 200 μM compound for 36-48 hrs, and then the cytosolic fraction was collected by pelleting the cells, washing, and subsequent lysing induced by freeze-thaw cycles. The isolate was then passed through a 3000 MW cutoff filter, concentrated, and analyzed by LC ESI-MS using a Vydac C4 (2.1 mm×150 mm, 5μ) column using a linear gradient of CH3CN/H2O.

Molecule	detection of the sialic acid in the cytosolic fraction by LC ESI-MS
5-N-trifluorobutyl-Neu [Compound 5g]	not detected
O=C(CC(F)(F)F)N[C@H]1[C@H]([C@H](O)[C@H](O)CO)OC(O)(C(=O)O)C[C@@H]1O (some centres unmarked) [Compound 5e, 5-N-trifluoropropyl-Neu]	not detected
